Data on one compound can be found in publication PMC9837035 (Nature Communications, 2023).

Series [1] in a line: Body weight of mice during 5-week administration. In kind it is in vivo. The note with it: 50 mg/kg i.p., Day 0. The procedure:
The dosing solution contained 15% DMSO, 17.5% Cremophor EL, 8.75% EtOH, 8.75% HCO-40, and 50% PBS. Blood samples were collected once a week by Retro Orbital Sampling (75 μL Calibrated Micropipette; Drummond Scientific Company) during isoflurane anesthesia. Blood RNA was extracted using NucleoSpin RNA Blood (Takara Bio Inc.). The weight of each mouse was measured every 3 or 4 days.

Series [2] can be described thus: Mouse acute toxicity assay, body weight. The note with it: 100 mg/kg. It counts as in vivo, mice. The method, then: All animal studies were approved by the Institutional Committee for Animal Experiments of the Institute of Microbial Chemistry, and were performed in accordance with relevant guidelines and regulations to minimize animal suffering. Four-week-old female ICR mice were purchased from Charles River Breeding Laboratories (Yokohama, Japan) and maintained in a specific pathogen-free barrier facility. […] Samples were dissolved in saline containing 10% DMSO and 1% Tween 80 and injected intravenously into mice.

“And” between values parts separate entries of the source, which are not always exact repeats. Equal entries are not always repeated. This continues a long series; more values of the same kind are listed elsewhere.

As to `Cc1c(C(=O)NC(CCC2CC2)C(=O)Nc2ccc(C#N)cc2)[nH]c2c1C(=O)CC(C)(C)C2` (centres unmarked) [RK-701], in series [1], the “body weight of individual mice” value was found to be 16.2 g. The “The body weight of individual mice” value is 24.54 g and 23.99 g in series [2] (Day3); 23.32 g and 25.65 g and 24.34 g in series [2] (Day4); 23.82 g and 26.48 g and 24.91 g in series [2] (Day5); 25.76 g and 27.58 g and 26.65 g in series [2] (Day7); 24.76 g and 27.51 g and 26.40 g in series [2] (Day9); 27.68 g and 26.45 g and 27.52 g in series [2] (Day11). For the same compound, the “The body weight of individual mice” value in series [2] (Day14) was 27.68 g and 26.56 g and 28.28 g.
